Assay results published in the supplement of paper PMC10032668.
Some of the results follow. The list holds hits alone, and they repeat only in part.

The chains behind the UniProt entries cited, without tags or fusion partners.
GLUL, P15104, UniProt P15104, whole entry: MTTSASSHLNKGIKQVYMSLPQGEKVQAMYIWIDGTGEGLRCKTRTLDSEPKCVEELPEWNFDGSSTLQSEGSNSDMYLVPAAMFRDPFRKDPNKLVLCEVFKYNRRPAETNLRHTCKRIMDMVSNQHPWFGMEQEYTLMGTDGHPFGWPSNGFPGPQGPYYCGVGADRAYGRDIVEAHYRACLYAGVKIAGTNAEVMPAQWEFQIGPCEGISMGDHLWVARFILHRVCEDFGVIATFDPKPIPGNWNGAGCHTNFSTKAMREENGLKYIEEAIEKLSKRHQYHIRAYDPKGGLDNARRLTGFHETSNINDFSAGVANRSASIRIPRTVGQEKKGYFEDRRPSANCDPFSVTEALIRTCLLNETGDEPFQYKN
MCM7, P33993, UniProt P33993, whole entry: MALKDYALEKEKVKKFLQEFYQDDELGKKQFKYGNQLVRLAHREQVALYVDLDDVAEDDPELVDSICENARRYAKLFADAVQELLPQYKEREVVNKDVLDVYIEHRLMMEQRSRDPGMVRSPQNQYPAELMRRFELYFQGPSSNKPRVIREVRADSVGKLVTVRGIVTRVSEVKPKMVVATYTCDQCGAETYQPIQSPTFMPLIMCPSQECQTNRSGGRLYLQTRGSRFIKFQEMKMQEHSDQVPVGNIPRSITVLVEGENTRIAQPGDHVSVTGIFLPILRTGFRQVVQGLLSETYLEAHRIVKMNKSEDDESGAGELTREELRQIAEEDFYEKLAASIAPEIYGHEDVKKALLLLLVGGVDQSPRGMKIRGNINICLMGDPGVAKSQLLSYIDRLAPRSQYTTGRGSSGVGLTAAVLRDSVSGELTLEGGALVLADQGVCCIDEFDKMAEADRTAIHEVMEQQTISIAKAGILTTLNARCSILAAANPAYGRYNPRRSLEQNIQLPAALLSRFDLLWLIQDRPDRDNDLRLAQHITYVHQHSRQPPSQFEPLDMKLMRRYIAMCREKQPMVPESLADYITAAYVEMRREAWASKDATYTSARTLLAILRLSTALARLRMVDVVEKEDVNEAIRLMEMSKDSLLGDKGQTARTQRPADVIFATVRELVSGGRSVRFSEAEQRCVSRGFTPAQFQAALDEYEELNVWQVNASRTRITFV
PPP2R5D, Q14738, UniProt Q14738, whole entry: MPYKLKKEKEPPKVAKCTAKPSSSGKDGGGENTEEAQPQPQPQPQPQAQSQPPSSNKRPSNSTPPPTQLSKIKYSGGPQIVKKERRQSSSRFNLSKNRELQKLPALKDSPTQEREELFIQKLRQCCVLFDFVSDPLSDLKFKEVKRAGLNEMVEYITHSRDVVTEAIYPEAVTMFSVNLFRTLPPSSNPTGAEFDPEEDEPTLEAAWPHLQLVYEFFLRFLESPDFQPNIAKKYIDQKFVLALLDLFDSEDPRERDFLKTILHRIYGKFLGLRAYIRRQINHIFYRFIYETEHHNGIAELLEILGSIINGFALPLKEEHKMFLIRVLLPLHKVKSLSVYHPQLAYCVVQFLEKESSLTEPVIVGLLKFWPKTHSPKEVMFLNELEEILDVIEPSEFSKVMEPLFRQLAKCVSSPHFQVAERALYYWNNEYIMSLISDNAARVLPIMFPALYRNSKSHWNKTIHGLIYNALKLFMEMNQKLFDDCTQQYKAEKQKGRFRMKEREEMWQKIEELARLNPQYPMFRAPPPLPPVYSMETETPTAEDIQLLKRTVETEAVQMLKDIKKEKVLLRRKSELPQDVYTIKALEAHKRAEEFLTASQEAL
SEC61A1, P61619, UniProt P61619, whole entry: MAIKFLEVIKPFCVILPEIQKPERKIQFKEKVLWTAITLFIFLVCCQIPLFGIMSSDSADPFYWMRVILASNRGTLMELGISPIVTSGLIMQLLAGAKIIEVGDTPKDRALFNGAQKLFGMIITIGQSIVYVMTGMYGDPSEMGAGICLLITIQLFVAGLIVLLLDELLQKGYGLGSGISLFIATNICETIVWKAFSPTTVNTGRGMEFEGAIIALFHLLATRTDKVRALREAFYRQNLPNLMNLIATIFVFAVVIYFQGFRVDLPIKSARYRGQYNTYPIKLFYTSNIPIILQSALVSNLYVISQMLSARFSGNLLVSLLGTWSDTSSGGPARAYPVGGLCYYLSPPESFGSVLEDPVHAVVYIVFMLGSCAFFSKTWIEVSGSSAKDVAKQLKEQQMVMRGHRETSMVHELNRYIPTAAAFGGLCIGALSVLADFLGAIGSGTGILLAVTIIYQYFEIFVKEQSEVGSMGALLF
CUL4B, Q13620, UniProt Q13620, whole entry: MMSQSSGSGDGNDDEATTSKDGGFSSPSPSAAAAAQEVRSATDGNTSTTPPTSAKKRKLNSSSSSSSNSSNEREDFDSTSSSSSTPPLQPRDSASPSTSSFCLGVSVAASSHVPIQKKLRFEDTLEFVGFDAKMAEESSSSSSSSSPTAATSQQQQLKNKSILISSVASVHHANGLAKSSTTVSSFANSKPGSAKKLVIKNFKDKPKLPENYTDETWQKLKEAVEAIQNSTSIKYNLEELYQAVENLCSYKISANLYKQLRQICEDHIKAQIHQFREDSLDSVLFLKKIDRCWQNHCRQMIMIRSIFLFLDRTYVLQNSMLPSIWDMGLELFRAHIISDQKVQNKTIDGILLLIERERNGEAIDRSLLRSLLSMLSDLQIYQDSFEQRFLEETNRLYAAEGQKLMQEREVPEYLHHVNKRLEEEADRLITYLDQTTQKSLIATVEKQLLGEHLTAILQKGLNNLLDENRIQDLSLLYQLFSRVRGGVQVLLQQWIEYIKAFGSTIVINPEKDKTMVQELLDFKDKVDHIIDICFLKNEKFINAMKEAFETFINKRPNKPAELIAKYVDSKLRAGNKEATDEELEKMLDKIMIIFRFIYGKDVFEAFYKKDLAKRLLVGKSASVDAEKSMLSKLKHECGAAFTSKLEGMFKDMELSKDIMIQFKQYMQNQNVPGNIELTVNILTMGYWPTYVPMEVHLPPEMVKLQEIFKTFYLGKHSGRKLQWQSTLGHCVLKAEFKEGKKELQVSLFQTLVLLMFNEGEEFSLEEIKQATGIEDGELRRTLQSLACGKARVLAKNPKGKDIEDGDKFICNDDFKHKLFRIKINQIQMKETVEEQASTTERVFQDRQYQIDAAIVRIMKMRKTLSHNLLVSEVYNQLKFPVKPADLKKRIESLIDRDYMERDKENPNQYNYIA
TPX2, Q9ULW0, UniProt Q9ULW0, whole entry: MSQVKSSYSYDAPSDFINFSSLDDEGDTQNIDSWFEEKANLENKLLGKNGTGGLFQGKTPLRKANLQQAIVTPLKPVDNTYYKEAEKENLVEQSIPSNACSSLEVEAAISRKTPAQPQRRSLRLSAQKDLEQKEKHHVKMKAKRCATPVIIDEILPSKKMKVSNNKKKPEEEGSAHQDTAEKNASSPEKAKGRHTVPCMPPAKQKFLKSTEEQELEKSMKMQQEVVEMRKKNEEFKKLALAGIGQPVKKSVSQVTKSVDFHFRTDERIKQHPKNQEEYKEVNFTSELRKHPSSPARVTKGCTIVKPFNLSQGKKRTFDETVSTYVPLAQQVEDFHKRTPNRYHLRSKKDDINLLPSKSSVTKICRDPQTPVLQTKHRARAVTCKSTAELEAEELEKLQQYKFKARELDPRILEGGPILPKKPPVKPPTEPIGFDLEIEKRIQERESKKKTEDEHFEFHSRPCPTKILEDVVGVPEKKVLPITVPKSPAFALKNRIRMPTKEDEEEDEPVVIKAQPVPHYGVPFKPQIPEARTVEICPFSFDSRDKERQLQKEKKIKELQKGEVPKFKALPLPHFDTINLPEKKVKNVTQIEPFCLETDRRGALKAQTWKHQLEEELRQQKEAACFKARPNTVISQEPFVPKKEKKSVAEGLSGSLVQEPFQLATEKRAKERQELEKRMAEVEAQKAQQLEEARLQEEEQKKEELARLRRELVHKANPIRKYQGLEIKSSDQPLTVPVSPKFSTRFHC

Assays:
Assay in all cases: PRISMA enrichment of interactor (LFQ) in peptide spot vs all other peptide spots (log2 fold change); higher = stronger / more specific binding of the interactor to the peptide
ANKRD28, O15084 = biological target: ANKRD28, O15084
Method: (§1)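 PRISMA: 15-aa overlapping tiles (offset 8 aa) of 60 microproteins, plus SOS1/GLUT1 control peptides, were spot-synthesized on cellulose membranes in triplicate. Membranes were incubated with benzonase-treated HEK293T lysate, and bound proteins were identified by LC-MS/MS with LFQ. Enrichment is the log2 fold change of each protein in one spot versus all other spots. Only interactors passing the significance cutoff are listed.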

CALU, O43852 = biological target: CALU, O43852
Method: as §1

DAZAP1, Q96EP5 = biological target: DAZAP1, Q96EP5
Method: as §1

DNAJA1, P31689 = biological target: DNAJA1, P31689
Method: as §1

EDF1, O60869 = biological target: EDF1, O60869
Method: as §1

EHD1, Q9H4M9 = biological target: EHD1, Q9H4M9
Method: as §1

EIF4G2, P78344 = biological target: EIF4G2, P78344
Method: as §1

FTSJ3, Q8IY81 = biological target: FTSJ3, Q8IY81
Method: as §1

GLUL, P15104 = biological target: GLUL, P15104
Method: as §1

HP1BP3, Q5SSJ5 = biological target: HP1BP3, Q5SSJ5
Method: as §1

IPO4, Q8TEX9 = biological target: IPO4, Q8TEX9
Method: as §1

IRS4, O14654 = biological target: IRS4, O14654
Method: as §1

LTV1, Q96GA3 = biological target: LTV1, Q96GA3
Method: as §1

MCM7, P33993 = biological target: MCM7, P33993
Method: as §1

MRPS2, Q9Y399 = biological target: MRPS2, Q9Y399
Method: as §1

MRPS23, Q9Y3D9 = biological target: MRPS23, Q9Y3D9
Method: as §1

MRPS6, P82932 = biological target: MRPS6, P82932
Method: as §1

NOC4L, Q9BVI4 = biological target: NOC4L, Q9BVI4
Method: as §1

NOP14, P78316 = biological target: NOP14, P78316
Method: as §1

PDCD11, Q14690 = biological target: PDCD11, Q14690
Method: as §1

PLEC, Q15149 = biological target: PLEC, Q15149
Method: as §1

PPP2R5D, Q14738 = biological target: PPP2R5D, Q14738
Method: as §1

PRPF40A, O75400 = biological target: PRPF40A, O75400
Method: as §1

PSPC1, Q8WXF1 = biological target: PSPC1, Q8WXF1
Method: as §1

RAB14, P61106 = biological target: RAB14, P61106
Method: as §1

RARS, P54136 = biological target: RARS, P54136
Method: as §1

RBFOX2, O43251 = biological target: RBFOX2, O43251
Method: as §1

RBM10 = biological target: RBM10
Method: as §1

SEC61A1, P61619 = biological target: SEC61A1, P61619
Method: as §1

SF3A3, Q12874 = biological target: SF3A3, Q12874
Method: as §1

TRIM28, Q13263 = biological target: TRIM28, Q13263
Method: as §1

USO1, O60763 = biological target: USO1, O60763
Method: as §1

ZNF483, Q8TF39 = biological target: ZNF483, Q8TF39
Method: as §1

CUL4B, Q13620 = biological target: CUL4B, Q13620
Method: as §1

PSMD2, Q13200 = biological target: PSMD2, Q13200
Method: as §1

SCAF11, Q99590 = biological target: SCAF11, Q99590
Method: as §1

TPX2, Q9ULW0 = biological target: TPX2, Q9ULW0
Method: as §1

Binder	PRISMA enrichment of interactor (log2) (ANKRD28, O15084)	PRISMA enrichment of interactor (log2) (CALU, O43852)	PRISMA enrichment of interactor (log2) (DAZAP1, Q96EP5)	PRISMA enrichment of interactor (log2) (DNAJA1, P31689)	PRISMA enrichment of interactor (log2) (EDF1, O60869)	PRISMA enrichment of interactor (log2) (EHD1, Q9H4M9)	PRISMA enrichment of interactor (log2) (EIF4G2, P78344)	PRISMA enrichment of interactor (log2) (FTSJ3, Q8IY81)	PRISMA enrichment of interactor (log2) (GLUL, P15104)	PRISMA enrichment of interactor (log2) (HP1BP3, Q5SSJ5)	PRISMA enrichment of interactor (log2) (IPO4, Q8TEX9)	PRISMA enrichment of interactor (log2) (IRS4, O14654)	PRISMA enrichment of interactor (log2) (LTV1, Q96GA3)	PRISMA enrichment of interactor (log2) (MCM7, P33993)	PRISMA enrichment of interactor (log2) (MRPS2, Q9Y399)	PRISMA enrichment of interactor (log2) (MRPS23, Q9Y3D9)	PRISMA enrichment of interactor (log2) (MRPS6, P82932)	PRISMA enrichment of interactor (log2) (NOC4L, Q9BVI4)	PRISMA enrichment of interactor (log2) (NOP14, P78316)	PRISMA enrichment of interactor (log2) (PDCD11, Q14690)	PRISMA enrichment of interactor (log2) (PLEC, Q15149)	PRISMA enrichment of interactor (log2) (PPP2R5D, Q14738)	PRISMA enrichment of interactor (log2) (PRPF40A, O75400)	PRISMA enrichment of interactor (log2) (PSPC1, Q8WXF1)	PRISMA enrichment of interactor (log2) (RAB14, P61106)	PRISMA enrichment of interactor (log2) (RARS, P54136)	PRISMA enrichment of interactor (log2) (RBFOX2, O43251)	PRISMA enrichment of interactor (log2) (RBM10)	PRISMA enrichment of interactor (log2) (SEC61A1, P61619)	PRISMA enrichment of interactor (log2) (SF3A3, Q12874)	PRISMA enrichment of interactor (log2) (TRIM28, Q13263)	PRISMA enrichment of interactor (log2) (USO1, O60763)	PRISMA enrichment of interactor (log2) (ZNF483, Q8TF39)	PRISMA enrichment of interactor (log2) (CUL4B, Q13620)	PRISMA enrichment of interactor (log2) (PSMD2, Q13200)	PRISMA enrichment of interactor (log2) (SCAF11, Q99590)	PRISMA enrichment of interactor (log2) (TPX2, Q9ULW0)
MRFLHSECVLMRYDS [RP11-12K22.1]	4.58	5.59	4.74	6.1	6.36	4.99	7.48	4.88	4.78	4.79	9.57	4.5	5.13	4.45	5.43	4.55	5.23	5.39	6.95	5.66	4.1	5.89	4.85	4.95	6.97	5.93	4	5.53	5.55	4.06	4.56	4.96	7.53	–	–	–	–
SVCGQRLSELVLPQS [NAV2-AS2_2]	4.17	–	–	–	–	–	–	–	–	–	–	–	–	–	–	–	–	–	–	–	–	–	–	–	–	–	–	–	–	–	–	–	–	9.73	8.41	4.69	6.14
